Measurements: patent publication US20210179666A1 (Regents of the University of Minnesota, priority 2019, published 2021)

Assay: general procedure: Fmoc solid-phase peptide synthesis; H-Pro-2-chlorotrityl resin (0.67 to 0.76 mequiv/g); HBTU/DIEA (HATU double coupling after NPhe in MDE9-88c and MDE9-93c); cyclisatio
Settings: whole synthesis, 214 nm

Q: For c[Pro-Arg-Phe-Phe-Dap-Val-Phe-DPro], which “final HPLC purity” value is on record?
A: >95%

Q: Which “final HPLC purity” value does the source give for cyclo(PRFFNVF[dP]) here?
A: >98%

Q: With “PEPTIDE1{P.R.F.F.N.A.[NPhe].[dP]}$PEPTIDE1,PEPTIDE1,1:R1-8:R2$$$V2.0” as the substance, how does the “final HPLC purity” value read?
A: >99%

Q: With “PEPTIDE1{P.[NArg].F.F.[Dap].A.F.[dP]}$PEPTIDE1,PEPTIDE1,1:R1-8:R2$$$V2.0” as the substance, how does the “final HPLC purity” value read?
A: >96%

Q: With cyclo(PRYFNAF[dP]) as the substance, how does the “final HPLC purity” value read?
A: >99%

Q: Which “final HPLC purity” value does the source give for “PEPTIDE1{P.R.F.F.[Dap].[NAla].F.[dP]}$PEPTIDE1,PEPTIDE1,1:R1-8:R2$$$V2.0” here?
A: >99%

Q: For cyclo(PHFFNAF[dP]), which “final HPLC purity” value is on record?
A: >98%

Q: Which “final HPLC purity” value does the source give for cyclo(PCFF[Dap]AF[dP]) here?
A: >95%

Q: With cyclo(PHFF[Dap]AF[dP]) as the substance, how does the “final HPLC purity” value read?
A: >95%

Q: With cyclo(PRYF[Dap]AF[dP]) as the substance, how does the “final HPLC purity” value read?
A: >98%

Q: Which “final HPLC purity” value does the source give for “PEPTIDE1{P.R.F.F.[Dap].A.[NPhe].[dP]}$PEPTIDE1,PEPTIDE1,1:R1-8:R2$$$V2.0” here?
A: >99%

Q: Which “final HPLC purity” value does the source give for cyclo(PCFFNAF[dP]) here?
A: >97%

Q: With c[Pro-Arg-Phe-Phe-Dap-Ala-PheDPro] as the substance, how does the “final HPLC purity” value read?
A: >98%

Some peptides are written in HELM: one residue between dots, names in brackets for other building blocks, links after the first $. Square brackets hold non-standard residues; d marks the D form. Dap = NC[C@H](N)C(=O)O
